From paper PMC3146510
No constants are given. Whether binding was seen depends on the method and setting. Binding seen in cells or lysates may run through a third protein. Some entries that bind do so weakly or less than the wild type.

Sequences of proteins named here, by UniProt entry; tags and fusion partners are left off. A change or cut given only in a name is not applied to a line headed by its entry. Residues count along the entry.
UniProt P05106, residues 27-788: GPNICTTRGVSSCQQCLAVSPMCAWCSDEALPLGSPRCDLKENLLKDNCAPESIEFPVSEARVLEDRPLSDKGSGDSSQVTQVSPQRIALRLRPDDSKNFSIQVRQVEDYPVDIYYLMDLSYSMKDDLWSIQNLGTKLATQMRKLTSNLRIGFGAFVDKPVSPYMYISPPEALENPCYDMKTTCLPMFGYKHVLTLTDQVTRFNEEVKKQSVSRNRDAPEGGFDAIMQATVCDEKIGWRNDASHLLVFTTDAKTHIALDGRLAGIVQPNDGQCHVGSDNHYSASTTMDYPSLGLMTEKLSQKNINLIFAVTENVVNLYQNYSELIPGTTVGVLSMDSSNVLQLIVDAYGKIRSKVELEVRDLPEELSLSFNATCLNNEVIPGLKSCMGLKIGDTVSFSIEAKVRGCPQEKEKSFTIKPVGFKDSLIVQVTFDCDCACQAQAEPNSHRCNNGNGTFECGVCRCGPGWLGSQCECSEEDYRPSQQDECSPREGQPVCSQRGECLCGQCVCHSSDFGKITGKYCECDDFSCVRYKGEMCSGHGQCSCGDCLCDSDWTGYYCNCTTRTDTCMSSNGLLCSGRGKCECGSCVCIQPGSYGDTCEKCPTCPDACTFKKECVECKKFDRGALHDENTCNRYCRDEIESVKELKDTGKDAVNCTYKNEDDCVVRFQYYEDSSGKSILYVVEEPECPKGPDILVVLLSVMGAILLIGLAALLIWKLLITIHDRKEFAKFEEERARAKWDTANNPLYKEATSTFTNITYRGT
UniProt P17301: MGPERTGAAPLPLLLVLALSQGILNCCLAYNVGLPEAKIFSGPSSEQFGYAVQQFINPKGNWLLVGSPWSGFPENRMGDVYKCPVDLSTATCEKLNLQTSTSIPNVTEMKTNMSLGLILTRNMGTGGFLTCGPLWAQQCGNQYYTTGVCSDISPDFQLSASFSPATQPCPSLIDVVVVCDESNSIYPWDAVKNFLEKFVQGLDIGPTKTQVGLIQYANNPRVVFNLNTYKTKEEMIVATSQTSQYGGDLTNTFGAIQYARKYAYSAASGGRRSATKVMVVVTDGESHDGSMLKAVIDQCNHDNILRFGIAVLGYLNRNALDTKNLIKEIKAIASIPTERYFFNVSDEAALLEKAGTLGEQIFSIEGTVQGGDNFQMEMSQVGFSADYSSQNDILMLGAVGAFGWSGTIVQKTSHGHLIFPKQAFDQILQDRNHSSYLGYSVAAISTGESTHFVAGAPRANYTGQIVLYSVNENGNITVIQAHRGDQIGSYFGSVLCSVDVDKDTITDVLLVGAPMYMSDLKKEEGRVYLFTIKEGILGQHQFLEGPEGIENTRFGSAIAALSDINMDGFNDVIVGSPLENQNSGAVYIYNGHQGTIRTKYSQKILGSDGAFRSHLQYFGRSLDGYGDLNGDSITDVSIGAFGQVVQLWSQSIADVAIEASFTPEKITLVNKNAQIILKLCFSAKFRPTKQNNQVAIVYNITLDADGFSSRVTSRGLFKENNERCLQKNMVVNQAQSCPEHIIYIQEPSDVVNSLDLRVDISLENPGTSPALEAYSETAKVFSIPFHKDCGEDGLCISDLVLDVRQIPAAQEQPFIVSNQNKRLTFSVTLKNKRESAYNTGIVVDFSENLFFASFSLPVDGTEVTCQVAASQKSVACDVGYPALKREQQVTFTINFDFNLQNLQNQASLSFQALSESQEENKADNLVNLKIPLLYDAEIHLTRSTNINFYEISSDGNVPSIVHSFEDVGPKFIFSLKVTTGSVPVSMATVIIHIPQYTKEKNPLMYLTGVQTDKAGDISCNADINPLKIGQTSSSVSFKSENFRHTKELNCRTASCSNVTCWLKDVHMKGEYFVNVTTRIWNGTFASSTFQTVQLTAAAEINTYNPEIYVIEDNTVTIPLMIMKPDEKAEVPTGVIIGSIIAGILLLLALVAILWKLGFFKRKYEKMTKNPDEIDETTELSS
UniProt P05556: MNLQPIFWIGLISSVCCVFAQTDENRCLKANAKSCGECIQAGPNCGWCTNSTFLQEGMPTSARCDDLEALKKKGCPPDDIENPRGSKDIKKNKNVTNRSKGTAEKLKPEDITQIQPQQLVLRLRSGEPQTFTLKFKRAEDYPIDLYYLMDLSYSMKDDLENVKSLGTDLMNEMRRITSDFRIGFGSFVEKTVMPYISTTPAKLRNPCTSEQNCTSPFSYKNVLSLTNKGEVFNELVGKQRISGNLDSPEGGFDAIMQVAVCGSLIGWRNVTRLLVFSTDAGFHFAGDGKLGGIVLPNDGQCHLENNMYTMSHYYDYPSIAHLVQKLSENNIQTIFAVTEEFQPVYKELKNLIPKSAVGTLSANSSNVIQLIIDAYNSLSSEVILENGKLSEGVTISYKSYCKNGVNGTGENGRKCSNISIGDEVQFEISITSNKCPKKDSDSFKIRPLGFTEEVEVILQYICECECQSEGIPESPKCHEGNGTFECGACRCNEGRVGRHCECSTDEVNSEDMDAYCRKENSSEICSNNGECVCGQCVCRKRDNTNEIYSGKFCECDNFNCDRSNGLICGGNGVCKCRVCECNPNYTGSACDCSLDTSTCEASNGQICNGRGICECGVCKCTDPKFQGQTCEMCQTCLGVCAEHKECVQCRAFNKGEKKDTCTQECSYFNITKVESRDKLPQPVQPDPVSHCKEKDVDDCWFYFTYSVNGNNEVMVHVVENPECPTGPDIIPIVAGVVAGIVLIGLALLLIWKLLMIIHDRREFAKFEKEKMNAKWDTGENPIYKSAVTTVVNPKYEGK

Columns and labels:
[1] = target: β3 integrin subunit (human (endogenous in fetal pancreas)) (UniProt P05106); experiment: co-IP; detergent extracts (1% Brij 96, 25 mM Hepes pH 7.5, 150 mM NaCl, 5 mM MgCl2) of human embryonic pancreatic explants; 700 µg protein; immunoprecipitation with rabbit polyclonal anti-α2, -α3, -α5, -β3, anti-Netrin-4 or rabbit IgG at 4°C overnight; Western blotting for Netrin-4
[2] = target: integrin α2β1 (human (endogenous in fetal pancreas)) (UniProt P17301+P05556); experiment: as above

binding [1]: no binding | binding [2]: binds
B1: Netrin-4 (protein, UniProt Q9HB63 19-628)
chain: GLSGVAGVSSRCEKACNPRMGNLALGRKLWADTTCGQNATELYCFYSENTDLTCRQPKCDKCNAAYPHLAHLPSAMADSSFRFPRTWWQSAEDVHREKIQLDLEAEFYFTHLIVMFKSPRPAAMVLDRSQDFGKTWKPYKYFATNCSATFGLEDDVVKKGAICTSKYSSPFPCTGGEVIFKALSPPYDTENPYSAKVQEQLKITNLRVQLLKRQSCPCQRNDLNEEPQHFTHYAIYDFIVKGSCFCNGHADQCIPVHGFRPVKAPGTFHMVHGKCMCKHNTAGSHCQHCAPLYNDRPWEAADGKTGAPNECRTCKCNGHADTCHFDVNVWEASGNRSGGVCDDCQHNTEGQYCQRCKPGFYRDLRRPFSAPDACKPCSCHPVGSAVLPANSVTFCDPSNGDCPCKPGVAGRRCDRCMVGYWGFGDYGCRPCDCAGSCDPITGDCISSHTDIDWYHEVPDFRPVHNKSEPAWEWEDAQGFSALLHSGKCECKEQTLGNAKAFCGMKYSYVLKIKILSAHDKGTHVEVNVKIKKVLKSTKLKIFRGKRTLYPESWTDRGCTCPILNPGLEYLVAGHEDIRTGKLIVNMKSFVQHWKPSLGRKVMDILKRECK
